PubChem BioAssay AID1259405, NCATS – 2018

Purpose: 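Mouse-designed siRNAs used to find CHO productivity engineering targets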 (primary screen)
Cells: Chinese hamster CHO-K1 ovary cells with stable secreted eGFP expression
Knock-down reagent: single siRNA against mouse genes, 0.8 pmol siRNA per well (2 µl of 400 nM stock)
Time to read-out: 3 days
Detection: 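Per-well intracellular GFP measured by laser scanning cytometry, plus viability from ATP luminescence, each relative to plate median of non-targeting control wells, in %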
Scale: GFP, % of control: higher = more GFP per well, higher productivity; viability (ATP), % of control: higher = more viable cells (more ATP)
Call rule: 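a knock-down is called active if GFP reaches 120% or more of non-targeting control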
This is an unselected part of about 50,000 reagents tested. About 4,000 of them (8%) were called active. 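Mouse siRNA library applied to hamster cells; one well for each siRNA.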 Entries without a mark were called inactive. The numbers tell different reagents against one gene apart. No sequences are given here.

Target gene | siRNA no. | GFP, % of control | viability (ATP), % of control
Rnps1 | 1 | 81.4 | 88.6
Rnps1 | 2 | 91.5 | 85.3
Rnps1 | 3 | 47.3 | 45.8
Etd | 1 | 62.6 | 80
Etd | 2 | 40.5 | 47
Etd | 3 | 32.9 | 25.3
Map1lc3b | 1 | 104 | 91
Map1lc3b | 2 | 81.6 | 85
Mycbp2 | 1 | 93.6 | 85.7
Mycbp2 | 2 | 182 (active) | 73.6
Mycbp2 | 3 | 108 | 143
Dusp22 | 1 | 138 (active) | 77
Dusp22 | 2 | 73 | 58.4
Dusp22 | 3 | 53.2 | 94.2
Plekhj1 | 1 | 185 (active) | 93.8
Plekhj1 | 2 | 132 (active) | 63.5
Plekhj1 | 3 | 145 (active) | 122
Atp1b4 | 1 | 142 (active) | 103
Atp1b4 | 2 | 34.6 | 29.6
Atp1b4 | 3 | 86.1 | 74
Pnpla8 | 1 | 73.3 | 92.8
Pnpla8 | 2 | 120 (active) | 89.3
Pnpla8 | 3 | 146 (active) | 88.6
Nkg7 | 1 | 43.6 | 43.5
Nkg7 | 2 | 114 | 71.2
Nkg7 | 3 | 98.1 | 81.8
Tufm | 1 | 74.3 | 88.2
Tufm | 2 | 51.6 | 96.4
Phf21a | 1 | 99.7 | 93.1
Phf21a | 2 | 82 | 44.6
Phf21a | 3 | 153 (active) | 76.3
Gatc | 1 | 85.1 | 96.3
Gatc | 2 | 81.8 | 47.2
Gatc | 3 | 56.7 | 77
Adam3 | 1 | 29.4 | 73.2
Adam3 | 2 | 47.2 | 87.8
Adam3 | 3 | 79.5 | 91.6
Nf2 | 1 | 52.4 | 78.8
Nf2 | 2 | 50.6 | 78.5
Lrp5 | 1 | 89.4 | 70.9
Lrp5 | 2 | 42.6 | 43
Lrp5 | 3 | 98.7 | 72.5
Gja4 | 1 | 98.4 | 77.2
Gja4 | 2 | 123 (active) | 87
Gja4 | 3 | 98.7 | 108
Gnb2 | 1 | 173 (active) | 113
Gnb2 | 2 | 48.4 | 61.1
Gnb2 | 3 | 32.5 | 28.1
Clec2h | 1 | 138 (active) | 93.6
Clec2h | 2 | 70.1 | 69.3
Clec2h | 3 | 71.3 | 84.8
Mrpl16 | 1 | 59.5 | 77.4
Mrpl16 | 2 | 85.5 | 74.3
Mrpl16 | 3 | 98.4 | 75.3
Cd209a | 1 | 50.2 | 59.5
Cd209a | 2 | 68.7 | 89.7
Cd209a | 3 | 44.1 | 42.3
